How the values were obtained:
[1] = general procedure: Fmoc solid-phase peptide synthesis; 2-chlorotrityl chloride resin (0.89 mmol/g); HATU/DIPEA (solution couplings)
[2] = general procedure: Fmoc solid-phase peptide synthesis; 2-chlorotrityl chloride resin; HATU/DIPEA (solution couplings); conditions: whole synthesis, trifluoroacetate
[3] = Fmoc solid-phase peptide synthesis; 2-chlorotrityl chloride resin; HATU/DIPEA (solution couplings); conditions: whole synthesis, scale 1.000 g resin (0.89 mmol/g), trifluoroacetate
[4] = peptide synthesis; conditions: conjugation step, trifluoroacetate
[5] = late stage modification step, trifluoroacetate
[6] = scale 1.000 g resin (0.89 mmol/g)

With “Ac-Ala-Lys[Tyr(tBu)-Ala-(Fmoc)Ala]-2-methylethylamino trifluoroacetate” the step yield [1, 5] was 16% yield.

Ac-Ala-Lys[Tyr(tBu)-Ala-Ala-Fmoc] showed a step yield ([1]; coupling step, trifluoroacetate) of 81% yield.

Work on “Ac-Ala-Lys[Tyr-Ala-Ala]-(2-(pNP-thionocarbamate)methyl)ethylamino trifluoroacetate” yielded a step yield ([1]; late stage modification step, over three steps from 34, trifluoroacetate) of 67% yield over three steps.

With “Ac-Lys[Phe-Ala-Ala]-(2-(pNP-thionocarbamate)methyl)ethylamino trifluoroacetate” the step yield ([1]; coupling step, from 9, trifluoroacetate) was 46% yield.

Ac-Lys[Tyr(tBu)-Ala-(Fmoc)Ala] gave a crude yield [2, 6] of 56% yield and a crude mass [3] of 387 mg.

Substance “Ac-Lys[Tyr(tBu)-Ala-(Fmoc)Ala]-2-methylethylamino trifluoroacetate” has a step yield [1, 5] of 31% yield.

Ac-Lys[Tyr(tBu)-Ala-Ala-(Boc)Ala] showed a crude yield [2, 6] of 75% yield and a crude mass [3] of 540 mg.

“Ac-Lys[Tyr(tBu)-Ala-Ala-(Boc)Ala]-2-methylethylamino trifluoroacetate” gave a step yield [1, 5] of 53% yield.

With Ac-Lys[Tyr(tBu)-Ala-Ala-(Fmoc)Ala] the crude yield ([2]; scale of the general procedure 1.000 g resin) was 51% yield and the crude mass [2] was 383 mg.

In the case of “Ac-Lys[Tyr(tBu)-Ala-Ala-(Fmoc)Ala]-2-methylethylamino trifluoroacetate”, the step yield ([1]; late stage modification step, over two steps from 15, trifluoroacetate) is reported as 11% yield over two steps.

For “Ac-Lys[Tyr(tBu)-Ala-Ala-Ala]-(2-(pNP-thionocarbamate)methyl)ethylamino trifluoroacetate”, the step yield [1, 5] was 48% yield.

In the case of “Ac-Lys[Tyr-Ala-Ala-Ala]-(2-(oxycodone-thionocarbamate)methyl)ethylamino ditrifluoroacetate”, the conjugation yield [4] is reported as 56% yield.

Work on “Ac-Lys[Tyr-Ala-Ala-Ala]-(2-(pNP-thionocarbamate)methyl)ethylamino trifluoroacetate” yielded a step yield [1, 5] of 50% yield.

“Ac-Lys[Tyr-Ala-Ala]-(2-(pNP-thionocarbamate)methyl)ethylamino trifluoroacetate” gave a step yield ([1]; late stage modification step, from 28, trifluoroacetate) of 54% yield.

Ala-Ala-Ala-Tyr trifluo showed a crude mass ([1]; whole synthesis, TFA salt) of 286 mg and a crude yield ([1]; whole synthesis, scale of the general procedure 1.000 g resin, trifluoroacetate) of 77% yield.

Work on “Ala-Ala-Lys[(Ac)Phe]-(2-(pNP-thionocarbamate)methyl)ethylamino trifluoroacetate” yielded a step yield ([1]; coupling step, from 7, trifluoroacetate) of 91% yield.

— PMC12569658 (JACS Au, 2025)
